Test results taken from the supplement of paper PMC12593923.
Where a name gives a salt, the structure may show the parent alone. Some well-known active drugs show little effect in this data set, so a weak value is uncertain.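 The three lines are all high-grade serous ovarian cancer cells with differing chemosensitivity; OVCAR3 is described as chemosensitive. Toxicity was normalized between DMSO vehicle wells and fully lysed wells, the score comes from a fitted multi-dose response curve, and a score above 5 was counted as drug sensitivity.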

Columns and labels:
Assay in all cases: drug sensitivity score (DSS2, cytotoxicity, CellTox Green); higher = more cytotoxic / more sensitive; extreme values may be limits of the assay
Details in all cases: 72 h; doses 0.5, 1, 5 µM
OVCAR3 = system: OVCAR3
OVCAR4 = system: OVCAR4
Kuramochi = system: Kuramochi

Structure (SMILES) | drug sensitivity score (OVCAR3) [DSS] | drug sensitivity score (OVCAR4) [DSS] | drug sensitivity score (Kuramochi) [DSS]
CC(=O)CCCCn1c(=O)c2c(ncn2C)n(C)c1=O [Pentoxifylline] | 0 | 0 | 0
Cc1ccc(NC(=O)c2ccc(CN3CCN(C)CC3)cc2)cc1Nc1nc(-c2cccnc2)cs1 [Masitinib (mesylate)] | 0 | 0 | 0
CC(=O)OCC(=O)[C@@]1(O)CC[C@H]2[C@@H]3CCC4=CC(=O)CC[C@]4(C)[C@@]3(F)[C@@H](O)C[C@@]21C [Fludrocortisone acetate] | 0 | 0 | 0
COC(=O)C1=C(C)NC(C)=C(C(=O)OC(C)C)C1c1cccc2nonc12 (configuration not stated) [Isradipine] | 0 | 0 | 0
CC[C@@]1(O)C(=O)OCc2c1cc1n(c2=O)Cc2c-1nc1ccccc1c2CCNC(C)C [Belotecan (hydrochloride)] | 0 | 0 | 0
O=C(c1ccc(F)cc1)C1CCN(CCn2c(=O)[nH]c3ccccc3c2=O)CC1 [Ketanserin (tartrate)] | 0 | 0 | 0
CC(=O)O[C@H]1C(=O)[C@@]2(C)[C@H]([C@H](OC(=O)c3ccccc3)[C@]3(O)C[C@H](OC(=O)[C@H](O)[C@@H](NC(=O)c4ccccc4)c4ccccc4)C(C)=C1C3(C)C)[C@]1(OC(C)=O)CO[C@@H]1C[C@@H]2O [Paclitaxel] | 1.6 | 0 | 0.8
Nc1nc(Cl)nc2c1ncn2[C@@H]1O[C@H](CO)[C@@H](O)[C@@H]1F [Clofarabine] | 0 | 0 | 0
OC(c1cc(C(F)(F)F)nc2c(C(F)(F)F)cccc12)C1CCCCN1 (configuration not stated) [Mefloquine (hydrochloride)] | 0 | 0.5 | 0
Cc1cnc(Nc2ccc(OCCN3CCCC3)cc2)nc1Nc1cccc(S(=O)(=O)NC(C)(C)C)c1 [Fedratinib (hydrochloride hydrate)] | 0 | 0 | 1.2
Cc1ncc(C[n+]2csc(CCO)c2C)c(N)n1 [Thiamine (hydrochloride)] | 0 | 0 | 0
CC(C)Cn1cnc2c(N)nc3ccccc3c21 [Imiquimod (hydrochloride)] | 0 | 0 | 0
C[C@@H]1CCN(C(=O)CC#N)C[C@@H]1N(C)c1ncnc2[nH]ccc12 [Tofacitinib] | 0 | 0 | 0
O=C1c2cccc(O)c2C(=O)c2c(O)cccc21 [Danthron] | 0 | 0 | 0
O=c1[nH]cnc2c([C@@H]3N[C@H](CO)[C@@H](O)[C@H]3O)c[nH]c12 [Forodesine (hydrochloride)] | 2.4 | 0 | 0
Cn1c(=O)c2nc[nH]c2n(C)c1=O [Theophylline] | 0 | 0.4 | 0
C[C@@H](Oc1cc(-c2cnn(C3CCNCC3)c2)cnc1N)c1c(Cl)ccc(F)c1Cl [Crizotinib (hydrochloride)] | 0 | 0 | 0

Quoted from the results shown (10 entries):
Structure (SMILES) | drug sensitivity score (OVCAR3) [DSS] | drug sensitivity score (OVCAR4) [DSS] | drug sensitivity score (Kuramochi) [DSS]
CC[C@@]1(O)C(=O)OCc2c1cc1n(c2=O)Cc2c-1nc1ccccc1c2CCNC(C)C [Belotecan (hydrochloride)] | 0 | 0 | 0
O=C(c1ccc(F)cc1)C1CCN(CCn2c(=O)[nH]c3ccccc3c2=O)CC1 [Ketanserin (tartrate)] | 0 | 0 | 0
CC(=O)O[C@H]1C(=O)[C@@]2(C)[C@H]([C@H](OC(=O)c3ccccc3)[C@]3(O)C[C@H](OC(=O)[C@H](O)[C@@H](NC(=O)c4ccccc4)c4ccccc4)C(C)=C1C3(C)C)[C@]1(OC(C)=O)CO[C@@H]1C[C@@H]2O [Paclitaxel] | 1.6 | 0 | 0.8
Nc1nc(Cl)nc2c1ncn2[C@@H]1O[C@H](CO)[C@@H](O)[C@@H]1F [Clofarabine] | 0 | 0 | 0
OC(c1cc(C(F)(F)F)nc2c(C(F)(F)F)cccc12)C1CCCCN1 (configuration not stated) [Mefloquine (hydrochloride)] | 0 | 0.5 | 0
Cc1cnc(Nc2ccc(OCCN3CCCC3)cc2)nc1Nc1cccc(S(=O)(=O)NC(C)(C)C)c1 [Fedratinib (hydrochloride hydrate)] | 0 | 0 | 1.2
Cc1ncc(C[n+]2csc(CCO)c2C)c(N)n1 [Thiamine (hydrochloride)] | 0 | 0 | 0
CC(C)Cn1cnc2c(N)nc3ccccc3c21 [Imiquimod (hydrochloride)] | 0 | 0 | 0
C[C@@H]1CCN(C(=O)CC#N)C[C@@H]1N(C)c1ncnc2[nH]ccc12 [Tofacitinib] | 0 | 0 | 0
O=C1c2cccc(O)c2C(=O)c2c(O)cccc21 [Danthron] | 0 | 0 | 0

Next part.

Structure (SMILES) | drug sensitivity score (OVCAR3) [DSS] | drug sensitivity score (OVCAR4) [DSS] | drug sensitivity score (Kuramochi) [DSS]
COc1cc(Nc2c(C#N)cnc3cc(OCCCN4CCN(C)CC4)c(OC)cc23)c(Cl)cc1Cl [Bosutinib] | 0 | 0 | 0
CCOC(=O)C1=C(C)NC(C)=C(C(=O)OC)C1c1cccc([N+](=O)[O-])c1 (configuration not stated) [Nitrendipine] | 0 | 0 | 0
CNC(=O)c1cc(Oc2ccc(NC(=O)Nc3ccc(Cl)c(C(F)(F)F)c3)cc2)ccn1 [Sorafenib (Tosylate)] | 0 | 0 | 0
CCOc1nc2cccc(C(=O)OC(C)OC(=O)OC3CCCCC3)c2n1Cc1ccc(-c2ccccc2-c2nn[nH]n2)cc1 (configuration not stated) [Candesartan Cilexetil] | 0 | 0 | 0
C1COC(NC(C2CC2)C2CC2)=N1 [Rilmenidine (hemifumarate)] | 0 | 0 | 0
C[C@]12CCC3=C4CCC(=O)C=C4CC[C@H]3[C@@H]1CC[C@@]2(O)CC#N [Dienogest] | 0.4 | 0 | 0
NC(=O)c1cccc2cn(-c3ccc([C@@H]4CCCNC4)cc3)nc12 [Niraparib (hydrochloride)] | 1.5 | 0 | 0
COc1cc2nccc(Oc3ccc(NC(=O)C4(C(=O)Nc5ccc(F)cc5)CC4)cc3)c2cc1OC [Cabozantinib] | 0 | 0 | 0
CCC(C)n1ncn(-c2ccc(N3CCN(c4ccc(OCC5COC(Cn6cncn6)(c6ccc(Cl)cc6Cl)O5)cc4)CC3)cc2)c1=O (configuration not stated) [Itraconazole] | 0 | 0 | 0
CCCCCCc1ccc(O)cc1O [Hexylresorcinol] | 1 | 1.2 | 0.3
CN(C)CCOc1ccc(/C(=C(/CCCl)c2ccccc2)c2ccccc2)cc1 [Toremifene (citrate)] | 0 | 0 | 0
Nc1nc2[nH]cc(CCc3ccc(C(=O)N[C@@H](CCC(=O)O)C(=O)O)cc3)c2c(=O)[nH]1 [Pemetrexed (disodium hemipenta hydrate)] | 0 | 0 | 0
COc1cc2/c(=N/c3ccc(Br)cc3F)nc[nH]c2cc1OCC1CCN(C)CC1 [Vandetanib] | 0 | 0 | 0
CC(C)(C)c1nc(-c2cccc(NS(=O)(=O)c3c(F)cccc3F)c2F)c(-c2ccnc(N)n2)s1 [Dabrafenib] | 0 | 0 | 0
O=C(c1ccc(F)cc1)C1CCN(CCn2c(=O)[nH]c3ccccc3c2=O)CC1 [Ketanserin] | 0 | 0 | 0
CC[C@@]1(O)C[C@H](O[C@H]2C[C@H](N(C)C)[C@H](O[C@H]3C[C@H](O)[C@H](O[C@H]4CCC(=O)[C@H](C)O4)[C@H](C)O3)[C@H](C)O2)c2c(cc3c(c2O)C(=O)c2c(O)cccc2C3=O)[C@H]1C(=O)OC [Aclacinomycin A hydrochloride] | 0 | 0 | 0
CN(C)c1cc(NC(=O)CNC(C)(C)C)c(O)c2c1C[C@H]1C[C@H]3[C@H](N(C)C)C(=O)C(C(N)=O)=C(O)[C@@]3(O)C(=O)C1=C2O [Tigecycline (tetramesylate)] | 0 | 0 | 0.2
